Measured values published in paper PMC9358474.
No constants are given. Whether binding was seen depends on the method and setting. In cells and extracts the contact can be indirect. Some entries that bind do so weakly or less than the wild type.

Protein sequences, listed by entry. Tags and fused reporters are not part of them.
UniProt Q9Z0Z7: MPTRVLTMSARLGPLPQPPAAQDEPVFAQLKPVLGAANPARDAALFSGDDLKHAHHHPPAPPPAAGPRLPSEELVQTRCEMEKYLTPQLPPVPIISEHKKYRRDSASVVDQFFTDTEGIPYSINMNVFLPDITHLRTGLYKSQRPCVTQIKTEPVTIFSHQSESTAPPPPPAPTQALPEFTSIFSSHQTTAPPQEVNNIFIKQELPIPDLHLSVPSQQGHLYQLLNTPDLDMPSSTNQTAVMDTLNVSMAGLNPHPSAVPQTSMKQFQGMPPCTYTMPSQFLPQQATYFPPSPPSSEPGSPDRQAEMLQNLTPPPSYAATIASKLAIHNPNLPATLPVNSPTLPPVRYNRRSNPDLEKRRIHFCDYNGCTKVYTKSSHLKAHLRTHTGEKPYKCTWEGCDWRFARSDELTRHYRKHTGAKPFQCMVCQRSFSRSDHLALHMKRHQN
UniProt Q9DBH0: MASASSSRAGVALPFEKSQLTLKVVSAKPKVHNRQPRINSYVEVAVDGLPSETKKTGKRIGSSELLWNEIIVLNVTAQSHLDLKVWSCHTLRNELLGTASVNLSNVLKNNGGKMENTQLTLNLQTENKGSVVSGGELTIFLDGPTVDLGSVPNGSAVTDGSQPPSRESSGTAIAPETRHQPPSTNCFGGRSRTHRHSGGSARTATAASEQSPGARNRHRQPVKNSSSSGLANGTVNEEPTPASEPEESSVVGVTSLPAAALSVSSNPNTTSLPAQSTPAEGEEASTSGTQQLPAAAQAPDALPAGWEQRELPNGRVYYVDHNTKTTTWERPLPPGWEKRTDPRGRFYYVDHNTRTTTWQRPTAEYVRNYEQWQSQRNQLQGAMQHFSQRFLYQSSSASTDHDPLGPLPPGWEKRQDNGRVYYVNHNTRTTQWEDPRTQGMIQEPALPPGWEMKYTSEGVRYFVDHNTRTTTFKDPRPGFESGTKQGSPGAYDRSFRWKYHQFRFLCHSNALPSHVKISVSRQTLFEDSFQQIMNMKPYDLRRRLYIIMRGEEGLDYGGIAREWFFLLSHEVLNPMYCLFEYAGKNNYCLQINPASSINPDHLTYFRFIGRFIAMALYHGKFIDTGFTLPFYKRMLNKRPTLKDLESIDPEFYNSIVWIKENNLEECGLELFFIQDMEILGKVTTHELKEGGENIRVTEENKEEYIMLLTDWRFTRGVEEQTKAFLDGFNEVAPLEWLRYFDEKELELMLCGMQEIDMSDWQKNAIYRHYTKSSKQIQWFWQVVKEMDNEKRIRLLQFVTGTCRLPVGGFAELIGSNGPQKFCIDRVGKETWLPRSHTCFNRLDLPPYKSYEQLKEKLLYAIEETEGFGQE
UniProt O08586: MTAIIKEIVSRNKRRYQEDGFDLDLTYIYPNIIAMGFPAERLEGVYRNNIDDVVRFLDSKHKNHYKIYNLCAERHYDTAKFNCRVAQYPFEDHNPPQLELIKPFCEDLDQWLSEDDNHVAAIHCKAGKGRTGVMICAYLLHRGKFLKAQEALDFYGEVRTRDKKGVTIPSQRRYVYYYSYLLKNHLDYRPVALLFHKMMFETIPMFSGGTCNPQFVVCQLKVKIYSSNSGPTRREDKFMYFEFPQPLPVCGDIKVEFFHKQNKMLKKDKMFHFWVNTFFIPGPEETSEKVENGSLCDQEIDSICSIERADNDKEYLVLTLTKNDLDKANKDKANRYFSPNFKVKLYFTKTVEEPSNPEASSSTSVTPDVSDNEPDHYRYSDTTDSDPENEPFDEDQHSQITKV

What was measured:
[1] = molecular target: Kruppel-like factor 5 (KLF5), overexpressed (UniProt Q9Z0Z7); experiment: co-IP; overexpressed proteins in lysates of transfected HEK293E cells; primary antibody or control IgG at 4 °C overnight, protein A/G magnetic beads, Western blot
[2] = molecular target: WW domain-containing E3 Ubiquitin-protein ligase 2 (WWP2), overexpressed (UniProt Q9DBH0); experiment: as above
[3] = molecular target: Kruppel-like factor 5 (KLF5), endogenous (mouse (endogenous in mDPCs and molars)) (UniProt Q9Z0Z7); experiment: co-IP; endogenous proteins in mDPC lysates; primary antibody or control IgG at 4 °C overnight, protein A/G magnetic beads, Western blot
[4] = molecular target: WW domain-containing E3 Ubiquitin-protein ligase 2 (WWP2), endogenous (mouse (endogenous in mDPCs and molars)) (UniProt Q9DBH0); experiment: as above
[5] = molecular target: Kruppel-like factor 5 (KLF5), endogenous (mouse (endogenous in mDPCs and molars)) (UniProt Q9Z0Z7); experiment: proximity ligation; in situ PLA (Duolink) on paraffin sections of PN5 mouse molars; anti-PTEN mouse monoclonal with rabbit polyclonal anti-KLF5 or anti-WWP2
[6] = molecular target: WW domain-containing E3 Ubiquitin-protein ligase 2 (WWP2), endogenous (mouse (endogenous in mDPCs and molars)) (UniProt Q9DBH0); experiment: as above

Measured: binding

phosphatase and tensin homolog (PTEN), overexpressed (from UniProt O08586 1-403)
binds: [1] | [2]

phosphatase and tensin homolog (PTEN), endogenous (from UniProt O08586 1-403)
binds: [3] | [4] | [5] | [6]
